Values from PubChem BioAssay AID1671195 (Yale University, 2021).
Shown is one part, drawn at random, of about 22,000 reagents tested. Of all reagents, about 1,510 (6.9%) are marked active. 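Active includes knockdowns raising or lowering LDL uptake; positive z-scores mean more uptake, negative mean less.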 Entries without a mark were called inactive.

Aim: 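Regulators of LDL receptor activity judged by labelled LDL uptake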 (primary screen)
System: human Huh7 hepatoma cells
Reagents: siRNA pool against human genes, 18 nM
Time to read-out: about 2 to 2.5 days of knockdown, then 8 h LDL uptake
Treatment: DiI-labelled LDL at 30 µg/ml for 8 h, in lipoprotein-deficient serum medium
Read-out: 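Fluorescent LDL signal imaged in cells, scaled to the plate median, robust z-score for each replicate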
Scale: robust z-score: higher = more LDL uptake after knockdown
Rule for the call: 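a gene counts as active if at least two replicate z-scores exceed ±2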

LOC441385 (retired record) — robust z-score, replicate 1: 0.558; robust z-score, replicate 2: 0.805; robust z-score, replicate 3: 0.776
SH3YL1 — robust z-score, replicate 1: 0.691; robust z-score, replicate 2: -1.3; robust z-score, replicate 3: 0.256
SAXO2 — robust z-score, replicate 1: -0.631; robust z-score, replicate 2: -0.717; robust z-score, replicate 3: -0.649
GDNF — robust z-score, replicate 1: 0.125; robust z-score, replicate 2: -0.0212; robust z-score, replicate 3: 0.0148
CADPS — robust z-score, replicate 1: -0.606; robust z-score, replicate 2: -0.558; robust z-score, replicate 3: -0.174
RAB7A — robust z-score, replicate 1: 0.843; robust z-score, replicate 2: 1.7; robust z-score, replicate 3: -0.125
PCDHA5 — robust z-score, replicate 1: 0.592; robust z-score, replicate 2: 0.581; robust z-score, replicate 3: 0.524
TOX — robust z-score, replicate 1: -0.0507; robust z-score, replicate 2: -1.09; robust z-score, replicate 3: -0.782
SHISA6 — robust z-score, replicate 1: 0.792; robust z-score, replicate 2: 0.401; robust z-score, replicate 3: 0.754
BCAM — robust z-score, replicate 1: 0.13; robust z-score, replicate 2: -0.497; robust z-score, replicate 3: 0.236
CLCN7 — robust z-score, replicate 1: 0.642; robust z-score, replicate 2: 0.149; robust z-score, replicate 3: 1.57
PGLYRP1 — robust z-score, replicate 1: 0.402; robust z-score, replicate 2: -0.0779; robust z-score, replicate 3: 0.22
UBE4A — robust z-score, replicate 1: -0.44; robust z-score, replicate 2: -0.752; robust z-score, replicate 3: -0.999
NCS1 — robust z-score, replicate 1: -1.04; robust z-score, replicate 2: -0.785; robust z-score, replicate 3: -0.897
MRFAP1 — robust z-score, replicate 1: 0.1; robust z-score, replicate 2: -0.139; robust z-score, replicate 3: -0.0461
SYNPO — robust z-score, replicate 1: 0.545; robust z-score, replicate 2: -1.09; robust z-score, replicate 3: -0.0907
TMEM106C — robust z-score, replicate 1: -0.617; robust z-score, replicate 2: -1.28; robust z-score, replicate 3: -0.309
EEPD1 — robust z-score, replicate 1: -0.333; robust z-score, replicate 2: -0.329; robust z-score, replicate 3: 0.00986
CCDC32 — robust z-score, replicate 1: -0.334; robust z-score, replicate 2: -0.333; robust z-score, replicate 3: -0.797
OR2Y1 — robust z-score, replicate 1: -0.0713; robust z-score, replicate 2: 0.439; robust z-score, replicate 3: -0.231
BIRC7 — robust z-score, replicate 1: -1.11; robust z-score, replicate 2: -1.36; robust z-score, replicate 3: -1.52
NPPB — robust z-score, replicate 1: 2.48; robust z-score, replicate 2: 1.56; robust z-score, replicate 3: 0.517
LINC03163 — robust z-score, replicate 1: -0.946; robust z-score, replicate 2: -0.923; robust z-score, replicate 3: -1.25
KCNJ6 — robust z-score, replicate 1: 0.785; robust z-score, replicate 2: 0.254; robust z-score, replicate 3: 1.34
BRMS1 — robust z-score, replicate 1: -0.248; robust z-score, replicate 2: 0.48; robust z-score, replicate 3: -1.16
ZNF250 — robust z-score, replicate 1: 0.628; robust z-score, replicate 2: 0.678; robust z-score, replicate 3: 0.631
GRIA2 — robust z-score, replicate 1: -1.1; robust z-score, replicate 2: -0.713; robust z-score, replicate 3: -0.0347
DUSP19 — robust z-score, replicate 1: 0.149; robust z-score, replicate 2: 0.668; robust z-score, replicate 3: 0.118
GPR165P — robust z-score, replicate 1: -0.746; robust z-score, replicate 2: 0.883; robust z-score, replicate 3: 0.804
PFDN4 — robust z-score, replicate 1: -1.03; robust z-score, replicate 2: -0.0989; robust z-score, replicate 3: -0.841
